# From the supplement of paper PMC8728848
# Some of the results follow.
# Key:
# Experiment in all cases: glycan array binding signal (z-score within array); higher = stronger binding
# Conditions in all cases: glycan notation: IUPAC condensed, linker removed
# Fuc(a1-2)Gal = biological target: Fuc(a1-2)Gal
# Method in brief: (§1)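 The Consortium for Functional Glycomics database supplied 3228 glycan arrays, of which those lacking an available protein sequence were dropped. The binding signal, a within-array Z-score, was averaged across arrays of the same protein sequence and across linkers. Negative scores can be read as non-binding.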
# Fuc(a1-2)Gal(b1-3)GalNAc = biological target: Fuc(a1-2)Gal(b1-3)GalNAc
# Method in brief: as §1
# [1] = biological target: Fuc(a1-2)Gal(b1-3)GalNAc(b1-3)Gal
# Method in brief: as §1
# [2] = biological target: Fuc(a1-2)Gal(b1-3)GalNAc(b1-3)Gal(a1-4)Gal(b1-4)Glc
# Method in brief: as §1
# [3] = biological target: Fuc(a1-2)Gal(b1-3)GalNAc(b1-4)[Neu5Ac(a2-3)]Gal(b1-4)Glc
# Method in brief: as §1
# Fuc(a1-2)Gal(b1-3)GlcNAc = biological target: Fuc(a1-2)Gal(b1-3)GlcNAc
# Method in brief: as §1
# [4] = biological target: Fuc(a1-2)Gal(b1-3)GlcNAc(b1-3)Gal(b1-4)Glc
# Method in brief: as §1
# [5] = biological target: Fuc(a1-2)Gal(b1-3)[Fuc(a1-4)]GlcNAc
# Method in brief: as §1
# Fuc(a1-2)Gal(b1-4)Glc = biological target: Fuc(a1-2)Gal(b1-4)Glc
# Method in brief: as §1
# Fuc(a1-2)Gal(b1-4)Glc6S = biological target: Fuc(a1-2)Gal(b1-4)Glc6S
# Method in brief: as §1
# Fuc(a1-2)Gal(b1-4)GlcNAc = biological target: Fuc(a1-2)Gal(b1-4)GlcNAc
# Method in brief: as §1
# [6] = biological target: Fuc(a1-2)Gal(b1-4)GlcNAc(b1-3)Gal(b1-4)GlcNAc
# Method in brief: as §1
# [7] = biological target: Fuc(a1-2)Gal(b1-4)GlcNAc(b1-3)Gal(b1-4)GlcNAc(b1-3)Gal(b1-4)GlcNAc
# Method in brief: as §1
# [8] = biological target: Fuc(a1-2)Gal(b1-4)GlcNAc6S
# Method in brief: as §1
# [9] = biological target: Fuc(a1-2)Gal(b1-4)[Fuc(a1-3)]GlcNAc
# Method in brief: as §1
# [10] = biological target: Fuc(a1-2)Gal(b1-4)[Fuc(a1-3)]GlcNAc(b1-3)Gal(b1-4)[Fuc(a1-3)]GlcNAc
# Method in brief: as §1
# [11] = biological target: Fuc(a1-2)Gal(b1-4)[Fuc(a1-3)]GlcNAc(b1-3)Gal(b1-4)[Fuc(a1-3)]GlcNAc(b1-3)Gal(b1-4)[Fuc(a1-3)]GlcNAc
# Method in brief: as §1
# Fuc(a1-2)Gal6S(b1-4)Glc = biological target: Fuc(a1-2)Gal6S(b1-4)Glc
# Method in brief: as §1
# [12] = biological target: Fuc(a1-2)Gal6S(b1-4)Glc6S
# Method in brief: as §1
# [13] = biological target: Fuc(a1-2)Gal6S(b1-4)GlcNAc
# Method in brief: as §1
# Fuc(a1-2)[Gal(a1-3)]Gal = biological target: Fuc(a1-2)[Gal(a1-3)]Gal
# Method in brief: as §1
# [14] = biological target: Fuc(a1-2)[Gal(a1-3)]Gal(b1-3)GlcNAc
# Method in brief: as §1
# [15] = biological target: Fuc(a1-2)[Gal(a1-3)]Gal(b1-4)Glc
# Method in brief: as §1
# [16] = biological target: Fuc(a1-2)[Gal(a1-3)]Gal(b1-4)GlcNAc
# Method in brief: as §1
# [17] = biological target: Fuc(a1-2)[Gal(a1-3)]Gal(b1-4)[Fuc(a1-3)]GlcNAc
# Method in brief: as §1
# [18] = biological target: Fuc(a1-2)[Gal(a1-4)]Gal(b1-4)GlcNAc
# Method in brief: as §1
# [19] = biological target: Fuc(a1-2)[GalNAc(a1-3)]Gal
# Method in brief: as §1
# [20] = biological target: Fuc(a1-2)[GalNAc(a1-3)]Gal(b1-3)GlcNAc
# Method in brief: as §1
# [21] = biological target: Fuc(a1-2)[GalNAc(a1-3)]Gal(b1-4)Glc
# Method in brief: as §1
# [22] = biological target: Fuc(a1-2)[GalNAc(a1-3)]Gal(b1-4)GlcNAc
# Method in brief: as §1
binder,measurement,setting,value
"SLLPI (Mus musculus), Q9D9X8 (protein) MGICMSMYTQVLVPVDADGDHHILWSRFYERWGSCFNPCAGLVNCLPPHSSALYLCHRMEARSRAPRRQLCPPGITWLALAYLLSCLLASSKAKVFSRCELAKEMHDFGLDGYRGYNLADWVCLAYYTSGFNTNAVDHEADGSTNNGIFQISSRRWCRTLASNGPNLCRIYCTDLLNNDLKDSIVCAMKIVQEPLGLGYWEAWRHHCQGRDLSDWVDGCDF",glycan array binding signal (z-score),Fuc(a1-2)Gal,1.1
same,glycan array binding signal (z-score),Fuc(a1-2)Gal(b1-3)GalNAc,-1.15
same,glycan array binding signal (z-score),[1],0.084
same,glycan array binding signal (z-score),[2],-0.578
same,glycan array binding signal (z-score),[3],0.39
same,glycan array binding signal (z-score),Fuc(a1-2)Gal(b1-3)GlcNAc,-0.59
same,glycan array binding signal (z-score),[4],-0.98
same,glycan array binding signal (z-score),[5],1.07
same,glycan array binding signal (z-score),Fuc(a1-2)Gal(b1-4)Glc,-0.25
same,glycan array binding signal (z-score),Fuc(a1-2)Gal(b1-4)Glc6S,-0.22
same,glycan array binding signal (z-score),Fuc(a1-2)Gal(b1-4)GlcNAc,-0.019
same,glycan array binding signal (z-score),[6],-0.448
same,glycan array binding signal (z-score),[7],-0.164
same,glycan array binding signal (z-score),[8],0.445
same,glycan array binding signal (z-score),[9],-0.556
same,glycan array binding signal (z-score),[10],-0.528
same,glycan array binding signal (z-score),[11],-0.384
same,glycan array binding signal (z-score),Fuc(a1-2)Gal6S(b1-4)Glc,1.28
same,glycan array binding signal (z-score),[12],1.85
same,glycan array binding signal (z-score),[13],-0.384
same,glycan array binding signal (z-score),Fuc(a1-2)[Gal(a1-3)]Gal,0.167
same,glycan array binding signal (z-score),[14],-0.779
same,glycan array binding signal (z-score),[15],-1.68
same,glycan array binding signal (z-score),[16],-0.619
same,glycan array binding signal (z-score),[17],-0.194
same,glycan array binding signal (z-score),[18],-0.172
same,glycan array binding signal (z-score),[19],0.247
same,glycan array binding signal (z-score),[20],-1.07
same,glycan array binding signal (z-score),[21],-0.516
same,glycan array binding signal (z-score),[22],-0.142

# Two entries picked at random from the list so far, as already listed:
binder,measurement,setting,value
"SLLPI (Mus musculus), Q9D9X8 (protein) MGICMSMYTQVLVPVDADGDHHILWSRFYERWGSCFNPCAGLVNCLPPHSSALYLCHRMEARSRAPRRQLCPPGITWLALAYLLSCLLASSKAKVFSRCELAKEMHDFGLDGYRGYNLADWVCLAYYTSGFNTNAVDHEADGSTNNGIFQISSRRWCRTLASNGPNLCRIYCTDLLNNDLKDSIVCAMKIVQEPLGLGYWEAWRHHCQGRDLSDWVDGCDF",glycan array binding signal (z-score),Fuc(a1-2)Gal,1.1
same,glycan array binding signal (z-score),[2],-0.578
